# PubChem BioAssay (NCATS)
# Sequences of proteins named here, by UniProt entry; tags and fusion partners are left off. A change or cut given only in a name is not applied to a line headed by its entry. Residues count along the entry.
# UniProt P08482: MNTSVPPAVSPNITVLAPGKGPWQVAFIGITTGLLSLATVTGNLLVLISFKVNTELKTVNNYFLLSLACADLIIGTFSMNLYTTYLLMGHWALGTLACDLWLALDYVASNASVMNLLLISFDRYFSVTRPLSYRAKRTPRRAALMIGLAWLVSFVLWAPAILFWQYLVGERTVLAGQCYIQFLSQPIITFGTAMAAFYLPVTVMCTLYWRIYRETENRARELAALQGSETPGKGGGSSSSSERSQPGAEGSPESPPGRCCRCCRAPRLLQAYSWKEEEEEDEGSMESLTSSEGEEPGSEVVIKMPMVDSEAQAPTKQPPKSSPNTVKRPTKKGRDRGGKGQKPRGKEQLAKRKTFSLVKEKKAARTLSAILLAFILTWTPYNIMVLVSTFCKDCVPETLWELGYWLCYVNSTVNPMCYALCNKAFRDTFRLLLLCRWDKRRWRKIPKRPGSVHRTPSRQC
# UniProt O15648: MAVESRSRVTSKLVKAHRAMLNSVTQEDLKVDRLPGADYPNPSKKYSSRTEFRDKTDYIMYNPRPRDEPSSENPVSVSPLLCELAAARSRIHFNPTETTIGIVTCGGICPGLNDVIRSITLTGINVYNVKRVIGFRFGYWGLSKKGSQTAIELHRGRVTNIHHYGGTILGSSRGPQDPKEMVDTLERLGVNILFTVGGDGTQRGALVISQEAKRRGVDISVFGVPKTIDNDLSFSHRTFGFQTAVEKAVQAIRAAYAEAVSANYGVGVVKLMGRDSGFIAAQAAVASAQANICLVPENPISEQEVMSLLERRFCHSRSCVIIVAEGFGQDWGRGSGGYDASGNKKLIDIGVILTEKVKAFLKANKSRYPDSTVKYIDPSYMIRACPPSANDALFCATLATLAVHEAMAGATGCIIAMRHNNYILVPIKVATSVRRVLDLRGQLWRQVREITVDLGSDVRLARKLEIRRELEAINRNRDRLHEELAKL
# UniProt P15289: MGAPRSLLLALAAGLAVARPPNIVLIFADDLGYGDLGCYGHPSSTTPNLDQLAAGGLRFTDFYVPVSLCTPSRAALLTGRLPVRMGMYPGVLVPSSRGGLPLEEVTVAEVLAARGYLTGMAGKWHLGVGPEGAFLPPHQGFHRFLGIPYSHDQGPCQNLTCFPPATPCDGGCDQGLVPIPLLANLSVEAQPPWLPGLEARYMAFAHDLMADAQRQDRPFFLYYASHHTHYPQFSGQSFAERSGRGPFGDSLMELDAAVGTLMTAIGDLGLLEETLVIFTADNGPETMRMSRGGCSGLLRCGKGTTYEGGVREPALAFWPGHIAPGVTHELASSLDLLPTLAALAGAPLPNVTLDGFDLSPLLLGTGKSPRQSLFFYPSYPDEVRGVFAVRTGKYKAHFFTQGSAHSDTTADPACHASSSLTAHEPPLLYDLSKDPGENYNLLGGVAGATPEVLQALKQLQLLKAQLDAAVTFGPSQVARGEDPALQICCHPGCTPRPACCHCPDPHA
# UniProt P78324, whole entry, looked up: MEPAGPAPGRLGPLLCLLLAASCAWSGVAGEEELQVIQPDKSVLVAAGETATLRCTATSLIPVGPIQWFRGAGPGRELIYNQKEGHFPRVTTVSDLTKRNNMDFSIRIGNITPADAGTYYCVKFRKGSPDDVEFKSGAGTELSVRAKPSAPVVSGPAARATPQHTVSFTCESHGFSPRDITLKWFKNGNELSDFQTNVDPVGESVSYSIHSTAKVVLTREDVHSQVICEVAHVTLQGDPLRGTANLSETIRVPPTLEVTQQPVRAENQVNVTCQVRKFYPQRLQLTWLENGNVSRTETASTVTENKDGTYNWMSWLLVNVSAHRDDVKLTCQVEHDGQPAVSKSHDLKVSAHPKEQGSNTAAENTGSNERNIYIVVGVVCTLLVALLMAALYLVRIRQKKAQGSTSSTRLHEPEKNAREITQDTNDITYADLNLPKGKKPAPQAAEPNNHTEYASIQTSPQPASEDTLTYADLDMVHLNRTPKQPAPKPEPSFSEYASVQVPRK
# UniProt Q08722, whole entry, looked up: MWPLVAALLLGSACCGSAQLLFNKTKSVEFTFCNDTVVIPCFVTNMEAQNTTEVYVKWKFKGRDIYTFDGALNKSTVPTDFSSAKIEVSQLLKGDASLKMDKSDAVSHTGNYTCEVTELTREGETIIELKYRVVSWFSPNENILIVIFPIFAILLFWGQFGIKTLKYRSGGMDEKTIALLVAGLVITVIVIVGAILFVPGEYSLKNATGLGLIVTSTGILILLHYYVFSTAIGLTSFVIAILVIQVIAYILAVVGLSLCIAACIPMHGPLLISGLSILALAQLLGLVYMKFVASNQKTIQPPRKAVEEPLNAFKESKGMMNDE
# UniProt P09992: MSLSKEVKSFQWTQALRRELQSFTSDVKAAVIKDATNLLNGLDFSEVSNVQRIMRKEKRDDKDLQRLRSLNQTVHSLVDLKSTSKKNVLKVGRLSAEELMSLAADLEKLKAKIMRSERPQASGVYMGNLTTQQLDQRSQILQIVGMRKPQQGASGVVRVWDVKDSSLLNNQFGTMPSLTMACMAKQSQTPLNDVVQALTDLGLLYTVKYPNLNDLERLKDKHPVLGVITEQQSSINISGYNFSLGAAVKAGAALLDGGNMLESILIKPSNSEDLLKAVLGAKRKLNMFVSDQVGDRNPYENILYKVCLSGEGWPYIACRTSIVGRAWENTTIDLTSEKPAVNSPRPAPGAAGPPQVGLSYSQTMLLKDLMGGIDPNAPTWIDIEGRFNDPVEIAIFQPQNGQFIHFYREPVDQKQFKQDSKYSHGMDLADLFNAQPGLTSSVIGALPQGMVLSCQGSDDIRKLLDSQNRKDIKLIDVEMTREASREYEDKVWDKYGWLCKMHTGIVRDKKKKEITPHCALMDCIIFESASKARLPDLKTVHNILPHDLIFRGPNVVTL
# UniProt P02791, 2-175 limits assumed: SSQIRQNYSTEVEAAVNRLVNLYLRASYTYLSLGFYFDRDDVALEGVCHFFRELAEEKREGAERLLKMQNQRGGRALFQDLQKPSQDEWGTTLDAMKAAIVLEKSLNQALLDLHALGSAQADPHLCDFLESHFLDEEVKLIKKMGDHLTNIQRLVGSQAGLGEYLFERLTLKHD
# UniProt P00784: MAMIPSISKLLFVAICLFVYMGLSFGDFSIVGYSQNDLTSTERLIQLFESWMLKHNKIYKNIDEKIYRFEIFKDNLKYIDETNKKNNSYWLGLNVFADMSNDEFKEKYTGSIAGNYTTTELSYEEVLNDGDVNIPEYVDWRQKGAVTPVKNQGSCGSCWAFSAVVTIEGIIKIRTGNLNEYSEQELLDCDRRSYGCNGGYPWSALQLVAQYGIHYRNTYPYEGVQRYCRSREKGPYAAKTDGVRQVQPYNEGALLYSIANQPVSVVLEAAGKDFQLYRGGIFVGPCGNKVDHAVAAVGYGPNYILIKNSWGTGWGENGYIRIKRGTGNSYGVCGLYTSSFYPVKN
# UniProt P54132: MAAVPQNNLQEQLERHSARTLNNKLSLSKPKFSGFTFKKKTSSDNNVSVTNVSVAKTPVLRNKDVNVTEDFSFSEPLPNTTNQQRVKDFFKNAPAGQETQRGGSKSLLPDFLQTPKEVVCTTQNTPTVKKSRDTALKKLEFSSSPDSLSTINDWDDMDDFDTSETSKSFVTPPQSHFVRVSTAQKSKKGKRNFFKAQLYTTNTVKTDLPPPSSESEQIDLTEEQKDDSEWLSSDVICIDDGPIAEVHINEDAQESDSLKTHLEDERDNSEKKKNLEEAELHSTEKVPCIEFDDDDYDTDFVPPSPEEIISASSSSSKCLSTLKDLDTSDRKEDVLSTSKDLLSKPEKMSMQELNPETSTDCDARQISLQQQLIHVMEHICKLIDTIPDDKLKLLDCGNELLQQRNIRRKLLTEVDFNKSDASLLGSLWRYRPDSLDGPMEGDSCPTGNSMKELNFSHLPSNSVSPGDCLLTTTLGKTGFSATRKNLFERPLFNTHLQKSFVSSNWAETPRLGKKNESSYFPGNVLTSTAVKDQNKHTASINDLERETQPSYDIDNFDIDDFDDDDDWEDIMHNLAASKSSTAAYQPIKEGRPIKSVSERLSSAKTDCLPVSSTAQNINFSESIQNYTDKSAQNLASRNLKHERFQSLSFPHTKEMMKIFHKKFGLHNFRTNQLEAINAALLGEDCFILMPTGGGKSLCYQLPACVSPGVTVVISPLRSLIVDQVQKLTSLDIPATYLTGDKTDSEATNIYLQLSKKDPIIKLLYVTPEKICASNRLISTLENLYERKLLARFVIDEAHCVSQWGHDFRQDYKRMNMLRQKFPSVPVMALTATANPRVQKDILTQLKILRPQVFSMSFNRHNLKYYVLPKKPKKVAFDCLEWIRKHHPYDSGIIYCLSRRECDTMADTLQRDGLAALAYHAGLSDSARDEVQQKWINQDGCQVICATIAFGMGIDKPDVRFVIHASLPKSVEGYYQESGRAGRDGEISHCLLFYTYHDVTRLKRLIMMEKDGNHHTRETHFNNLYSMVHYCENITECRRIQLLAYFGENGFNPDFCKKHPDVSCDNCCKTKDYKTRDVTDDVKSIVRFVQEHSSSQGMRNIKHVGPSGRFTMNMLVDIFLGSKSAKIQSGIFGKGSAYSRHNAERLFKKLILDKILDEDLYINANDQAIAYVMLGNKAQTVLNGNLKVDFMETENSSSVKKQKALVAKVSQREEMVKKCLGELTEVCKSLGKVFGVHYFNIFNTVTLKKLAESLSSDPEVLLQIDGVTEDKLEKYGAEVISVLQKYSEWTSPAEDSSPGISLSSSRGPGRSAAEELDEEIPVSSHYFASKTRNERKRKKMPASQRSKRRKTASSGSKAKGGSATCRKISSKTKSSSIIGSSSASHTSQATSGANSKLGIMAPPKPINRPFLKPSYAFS
# UniProt Q9BV86: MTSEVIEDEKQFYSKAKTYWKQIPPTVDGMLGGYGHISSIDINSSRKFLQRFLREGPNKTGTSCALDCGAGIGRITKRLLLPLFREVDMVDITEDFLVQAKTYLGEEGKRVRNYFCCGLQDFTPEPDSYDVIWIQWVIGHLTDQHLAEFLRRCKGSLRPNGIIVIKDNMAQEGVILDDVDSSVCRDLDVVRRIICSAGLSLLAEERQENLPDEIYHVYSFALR
# UniProt Q9UGL1: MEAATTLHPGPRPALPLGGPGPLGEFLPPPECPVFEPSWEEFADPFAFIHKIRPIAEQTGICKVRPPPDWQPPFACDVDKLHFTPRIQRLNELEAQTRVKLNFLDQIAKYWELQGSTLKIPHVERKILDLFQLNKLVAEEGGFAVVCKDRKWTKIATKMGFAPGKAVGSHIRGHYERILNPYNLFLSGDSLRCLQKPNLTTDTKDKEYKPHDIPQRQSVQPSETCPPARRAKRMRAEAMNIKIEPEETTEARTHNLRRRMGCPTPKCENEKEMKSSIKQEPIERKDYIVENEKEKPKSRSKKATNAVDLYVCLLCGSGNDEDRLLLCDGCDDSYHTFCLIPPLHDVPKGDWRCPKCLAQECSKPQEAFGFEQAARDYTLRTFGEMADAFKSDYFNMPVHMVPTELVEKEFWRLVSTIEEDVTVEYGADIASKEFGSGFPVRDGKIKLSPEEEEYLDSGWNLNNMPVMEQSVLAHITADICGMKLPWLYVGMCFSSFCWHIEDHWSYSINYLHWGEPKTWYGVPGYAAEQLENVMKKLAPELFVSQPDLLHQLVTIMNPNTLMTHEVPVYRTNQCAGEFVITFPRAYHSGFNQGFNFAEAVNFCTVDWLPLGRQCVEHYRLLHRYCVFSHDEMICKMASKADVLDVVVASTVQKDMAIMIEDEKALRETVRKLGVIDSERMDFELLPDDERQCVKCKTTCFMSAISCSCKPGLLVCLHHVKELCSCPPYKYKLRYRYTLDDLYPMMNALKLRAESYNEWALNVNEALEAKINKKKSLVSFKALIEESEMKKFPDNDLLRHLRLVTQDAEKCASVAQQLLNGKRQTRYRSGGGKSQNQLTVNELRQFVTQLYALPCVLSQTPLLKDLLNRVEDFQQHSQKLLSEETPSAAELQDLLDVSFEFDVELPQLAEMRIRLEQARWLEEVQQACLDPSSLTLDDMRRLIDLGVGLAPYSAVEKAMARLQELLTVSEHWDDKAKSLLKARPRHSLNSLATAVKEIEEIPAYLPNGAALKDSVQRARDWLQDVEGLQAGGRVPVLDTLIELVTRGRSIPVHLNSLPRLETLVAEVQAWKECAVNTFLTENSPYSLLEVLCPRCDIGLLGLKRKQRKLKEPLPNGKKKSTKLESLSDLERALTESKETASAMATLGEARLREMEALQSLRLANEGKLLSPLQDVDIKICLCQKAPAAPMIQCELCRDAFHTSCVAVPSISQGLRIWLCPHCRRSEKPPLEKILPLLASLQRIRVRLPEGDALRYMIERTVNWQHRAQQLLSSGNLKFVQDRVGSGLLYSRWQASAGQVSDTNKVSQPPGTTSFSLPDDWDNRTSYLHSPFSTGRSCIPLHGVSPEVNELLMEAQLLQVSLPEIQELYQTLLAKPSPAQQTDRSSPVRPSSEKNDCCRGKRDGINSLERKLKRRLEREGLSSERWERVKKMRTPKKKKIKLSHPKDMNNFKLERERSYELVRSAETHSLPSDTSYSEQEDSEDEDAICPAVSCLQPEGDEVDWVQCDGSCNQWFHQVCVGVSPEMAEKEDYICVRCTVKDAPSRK
# The shares of active, inactive and inconclusive entries below differ from those in the screen. For part of these data: Where the call is inconclusive, the potency comes from a doubtful curve fit. For part of these data: “Side channel” marks fits to a control or component signal instead of the main read-out. Active and inactive are the calls of the source. Unless noted, calls come from the whole dose curve; as a rule, active = well fitted curve in the direction sought with a large enough effect; inconclusive = small, poorly fitted or top-dose-only effect, or another doubt; inactive = no such curve, though single readings can be large; an effect the other way counts as inactive or inconclusive.
# How the values were obtained:
# [1] = Stat Signaling Pathway (AID 446; active = well fitted curve in either direction with a large enough effect, not every such curve was filed as active; inconclusive = small, poorly fitted or top-dose-only effect, or another doubt;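 note: ME-180 cervical cancer cells given 40 pM IL-6 alongside compound; SIE-controlled beta-lactamase reporter measured as 460/530 nm FRET emission ratio; % is set by controls: 0 for no effect and ±100 for the full control effect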); conditions: ME-180 (cervical carcinoma) SIE beta-lactamase reporter, IL-6 stimulated, 5 h; at 38 µM (top of the series) unless noted
# Summary of the method: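 IL-6/STAT signaling read in ME-180 cells via an SIE beta-lactamase reporter. Stimulus was 40 pM IL-6 (its AC50) for 5 hrs, so both activation and inhibition register.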
# [2] = qHTS Assay for Identification of Small Molecule Antagonists for NFkB Signaling Pathway (AID 895; active = well fitted inhibition curve with a large enough effect in the signal ratio, with a control signal flat, not every such curve was filed as active; inconclusive = small, poorly fitted or top-dose-only effect, or effect the other way, or a change in a side signal; the % refers to the signal ratio; note: % is set by controls: 0 for no effect and ±100 for the full control effect); conditions: NFkB beta-lactamase reporter cells, FRET ratio 460/530; activity change, negative = inhibition: at 38.3 µM (top of the series) unless noted
# Summary of the method: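 Beta-lactamase reporter read-out (460 and 530 nm emission ratio, 405 nm excitation, 2 hrs substrate loading RT) after 5 hr stimulation with 10 pM TNF alpha in compound-treated NFkB-bla ME-180 cells in low-serum medium.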
# [3] = qHTS Assay for Identification of Small Molecule Antagonists for Thrombopoietin (TPO) Signaling Pathway (AID 918); conditions: TPO-dependent cell signaling reporter, antagonist mode; activity change, negative = inhibition: at 38.5 µM (top of the series)
# Summary of the method: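 Ba/F3 (murine, hTPO-R, GPIIb-luc reporter); overnight IL-3 withdrawal; cpd + TPO 26 pM final (EC50); 24 h 37 C/5% CO2; Steadylite luminescence after 10 min RT.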
# [4] = molecular target: Muscarinic acetylcholine receptor M1 (Rattus norvegicus) (UniProt P08482); assay: qHTS Assay for Antagonists of Acetylcholine Muscarinic M1 Receptor: Kinetic Measurement of Intracellular Calcium Response (AID 943); note: potency is the fitted concentration of half-maximal effect; nearly all actives have a fitted effect of over 75% in size
# Summary of the method: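 Rat M1-CHO cells, 2000/well, overnight → Fluo-4 no-wash dye with probenecid, 1 h 37C → compound 10 min, room temp → basal read 6 s → carbachol EC80 (100 nM) → 4 min kinetic read; peak/basal.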
# [5] = qHTS Assay for Lipid Storage Modulators (AID 1519; calls by dose curve; note: % is set by controls: 0 for no effect and ±100 for the full control effect); conditions: Drosophila S3 cells, BODIPY lipid droplet/cell ratio, laser cytometry, cells loaded with oleic acid; activity change, negative = inhibition: at 57.5 µM (top of the series) unless noted
# Summary of the method: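 Cells seeded at 5,000 per well were treated with compounds over a concentration series and loaded with oleic acid (400 uM, as added). Lipid droplet fluorescence (488 nm excitation, 500-530 nm channel) was read by laser-scanning cytometry and normalized to 20 uM Triacsin C.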
# [6] = molecular target: Endonuclease 4 (Escherichia coli (strain K12)) (UniProt P0A6C1); assay: Counterscreen for APE1 Inhibitors: qHTS Validation Assay for Inhibitors of Endonuclease IV (AID 1708); note: potency is the fitted concentration of half-maximal effect
# Summary of the method: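 qHTS concentration-response format; LOPAC1280 tested under APE1-screen conditions. 2 nM enzyme, 15 min compound preincubation at RT, then 50 nM TAMRA/BHQ-2 abasic substrate; kinetic fluorescence read, three reads at 60 s intervals.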
# [7] = qHTS for differential inhibitors of proliferation of Plasmodium falciparum line 7G8 (AID 1815);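 note: parasite growth measured after three days of incubation; plate controls were vehicle wells for no effect and reference inhibitor wells for full effect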
# [8] = qHTS for differential inhibitors of proliferation of Plasmodium falciparum line W2 (AID 1883); conditions: Potency: Plasmodium falciparum W2 proliferation inhibition;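 note: potency is the fitted concentration of half-maximal effect; parasites grown with compound for 72 h before lysis and staining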
# [9] = molecular target: ATP-dependent 6-phosphofructokinase (Trypanosoma brucei brucei) (UniProt O15648); assay: qHTS Validation Assay to Find Inhibitors of T. brucei phosphofructokinase (AID 485368);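 for activity change, negative = inhibition: 0% = full PFK enzyme control and -100% = wells without enzyme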
# Summary of the method: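 Activity was normalized between 1x (1.25 nM) PFK wells as no inhibition and enzyme-free wells as full inhibition, from luminescence after ADP-Glo detection of ADP made from 0.5 mM F6P and 0.1 mM ATP over 45 min.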
# [10] = molecular target: ATPase family AAA domain-containing protein 5 (Homo sapiens) (UniProt Q96QE3); assay: Validation screen for small molecules that inhibit ELG1-dependent DNA repair in human embryonic kidney (HEK293T) cells expressing luciferase-tagged ELG1 (AID 493107); conditions: HEK293T ELG1-luciferase level, luminescence, 5-fluorouridine co-treatment, 16 h; activity change, negative = decrease: at 46.1 µM (top of the series); note: potency is the fitted concentration of half-maximal effect; nearly all actives have a fitted effect of over 70% in size
# Summary of the method: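 Luminescence from ONE-Glo, developed 30 min at room temperature, served as read-out of ELG1-luciferase levels. Beforehand, reporter HEK293T cells received 5-fluorouridine plus test compound for 16 hr at 37 °C.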
# [11] = molecular target: Arylsulfatase A (Homo sapiens) (UniProt P15289); assay: qHTS screen for enhancers of Arylsulfatase A (ASA1): LOPAC Validation Assay (AID 720538); note: potency is the fitted concentration of half-maximal effect
# Summary of the method: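 Cell-based enhancement test: residual ASA activity in SV40-transformed I179S patient fibroblasts is measured by pNCS turnover (0.5mM final, 14h, room temperature) following 48h compound incubation; higher fluorescence indicates activation.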
# [12] = molecular target: Tyrosine-protein phosphatase non-receptor type substrate 1 (Homo sapiens) + Leukocyte surface antigen CD47 (Homo sapiens) (UniProt P78324+Q08722); assay: CD47-SIRPalpha protein protein interaction - HTRF assay qHTS validation (AID 1347058; active = well fitted curve in the direction sought with a large enough effect in the signal ratio, not every such curve was filed as active; inconclusive = small, poorly fitted or top-dose-only effect, or effect the other way, or a change in a side signal; inactive = no such curve, though single readings can be large or run the other way; the % refers to the signal ratio;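 for activity change, negative = inhibition: recombinant soluble extracellular CD47 with His tag and biotinylated SIRPalpha domains; 0% is about no effect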)
# Summary of the method: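 TR-FRET read (Ch1/Ch2 ratio) of soluble extracellular CD47 and Avi-biotinylated SIRPalpha domains in PBS pH 7.4 with 0.05% IGEPAL; 7-point compound titration. Sequential 30 min room-temperature steps; non-biotinylated SIRPalpha as control inhibitor.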
# [13] = molecular target: Nucleoprotein (Lymphocytic choriomeningitis virus (strain Armstrong)) (UniProt P09992); assay: qHTS for Inhibitors of the Functional Ribonucleoprotein Complex (vRNP) of Lymphocytic Choriomeningitis Arenaviruses (LCMV): LCMV Primary Screen - GLuc reporter signal (AID 1347086; calls by dose curve; note: % is set by controls: 0 for no effect and ±100 for the full control effect; nearly all actives have a fitted effect of over 70% in size); conditions: LCMV minigenome vRNP cell assay, Gaussia luciferase reporter; activity change, negative = inhibition: at 57.5 µM (top of the series) unless noted
# [14] = Primary qHTS for small molecule stabilizers of the endoplasmic reticulum resident proteome: Secreted ER Calcium Modulated Protein (SERCaMP) assay (AID 1508630); conditions: SH-SY5Y GLuc-SERCaMP (Gaussia luciferase released on ER calcium loss) secretion, thapsigargin, luminescence; activity change, negative = inhibition: at 38.4 µM (top of the series); note: potency is the fitted concentration of half-maximal effect
# Summary of the method: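 GLuc-SERCaMP-expressing SH-SY5Y cells, pretreated 16 h with compound, are challenged with thapsigargin to empty ER calcium stores; after 4 h, coelenterazine is added directly to the medium and luminescence is imaged.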
# [15] = qHTS for Inhibitors of the Functional Ribonucleoprotein Complex (vRNP) of Lassa (LASV) Arenavirus: LASV Primary Screen - GLuc reporter signal (AID 1347082; calls by dose curve; tested in HEK293 reporter line; note: nearly all actives have a fitted effect of over 60% in size; note: potency is the fitted concentration of half-maximal effect); conditions: LASV minigenome vRNP, Gaussia luciferase reporter; activity change, negative = inhibition: at 57.5 µM (top of the series) unless noted
# [16] = molecular target: Ferritin light chain (Equus caballus) (UniProt P02791); assay: qHTS Validation Assay for Identification of Novel General Anesthetics (AID 2323); note: % is set by controls: 0 for no effect and ±100 for the full control effect
# Summary of the method: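 Normalized fluorescence response, scaled between free 1-AMA and 1-AMA/apoferritin complex, fitted to a four-parameter Hill equation for concentration-effect values. Binding mix: 10 uM horse-spleen apoferritin, 50% saturated 1-AMA in PBS; read 380/535 nm after 10 min.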
# [17] = Quantitative high throughput screen for delayed death inhibitors of the malarial parasite plastid, 96 hour incubation (AID 488745);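 note: luciferase-expressing P. falciparum in erythrocytes at 2% hematocrit and 0.1% parasitemia; % is set by controls: 0 for no effect and ±100 for the full control effect; nearly all actives have a fitted effect of over 70% in size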
# Summary of the method: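 Infected erythrocytes were added to compound in Albumax-supplemented RPMI 1640 at 0.1% parasitemia and 2% hematocrit (final), incubated 96 h at 37 C under 5% CO2, then luciferase reagent was added and luminescence measured.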
# [18] = HTS Assay for Allosteric Antagonists of the Human D2 Dopamine Receptor: Hit Validation in HTRF (AID 624455)
# Summary of the method: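 First, antagonism was screened by calcium flux in a force-coupled, inducible Hek293 Trex D2 line challenged with EC80 dopamine. Hits then went into an HTRF assay in cells stably expressing D1, testing inhibition of the D1 response.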
# Papain (Carica papaya) = Papain (Carica papaya) (UniProt P00784); assay: Primary qHTS assay for inhibitors of the protease papain (AID 1645873);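 note: papain turnover of Z-FR-AMC read as the AMC fluorescence gain over 10 min; potency is the fitted concentration of half-maximal effect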
# [19] = qHTS for differential inhibitors of proliferation of Plasmodium falciparum line GB4 (AID 1816); conditions: Potency: Plasmodium falciparum GB4 proliferation inhibition;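 note: potency is the fitted concentration of half-maximal effect; parasite growth measured after 72 h incubation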
# [20] = molecular target: RecQ-like DNA helicase BLM (Homo sapiens) (UniProt P54132); assay: qHTS Validation Assay for Inhibitors of Bloom's syndrome helicase (BLM) (AID 2364);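 note: plate controls were DMSO vehicle for no effect and enzyme-free control for full effect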
# Summary of the method: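 Forked 20-bp duplex substrate (200 nM, TAMRA/BHQ-2) plus 2 mM ATP added after 15 min compound preincubation with 50 nM enzyme, pH 8.0, poly(dI-dC) 2.5 ug/ml. Strand separation followed by fluorescence (525/598 nm) over 2 h, normalized to enzyme-free and DMSO controls.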
# [21] = molecular target: N-terminal Xaa-Pro-Lys N-methyltransferase 1 (Homo sapiens) (UniProt Q9BV86); assay: qHTS Assay for Inhibitors of N-terminal methyltransferase 1 (NTMT1): LOPAC validation of the NTMT1 SAHH-coupled ThioGlo3 Assay (AID 1347143);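 note: SAH from peptide methylation measured as thiol fluorescence via SAHH coupling and ThioGlo3; potency is the fitted concentration of half-maximal effect; nearly all actives have a fitted effect of over 70% in size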
# Summary of the method: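 Inhibition of NTMT1 methylation of peptide SPKRIA is followed by converting SAH with SAHH and labelling the released thiol with ThioGlo3. Plates are read at 340/450nm before and 30 min after reagent addition, both at room temperature.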
# [22] = molecular target: Lysine-specific demethylase 5B (Homo sapiens) (UniProt Q9UGL1); assay: Optimization screen for KDM5B Histone Demethylases FDH coupled qHTS against the LOPAC library (AID 1347166); conditions: KDM5B demethylation, FDH-coupled NADH fluorescence; activity, negative = inhibition: at 57.5 µM (top of the series) unless noted; note: potency is the fitted concentration of half-maximal effect
# Summary of the method: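 KDM5BDeltaAP (200nM final) preincubated 10 min with compound, then 12.5uM H3K4Me3, 25uM a-ketoglutarate, ascorbate, Fe(II), NAD+ and FDH added; 50mM HEPES pH 7.5, 0.01% Tween-20. NADH fluorescence (340/450 nm) change over 30 min, room temperature.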
# [23] = Confirmatory qHTS for small molecule stabilizers of the endoplasmic reticulum resident proteome: Secreted ER Calcium Modulated Protein (SERCaMP) assay (AID 1508628); note: potency is the fitted concentration of half-maximal effect; nearly all actives have a fitted effect of over 40% in size
# Summary of the method: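 SH-SY5Y cells stably expressing GLuc-SERCaMP, treated 16 h with compound (primary 1.53, 7.67, 38.3 uM; confirmation 11 concentrations, up to 76.6 uM), then 100 nM thapsigargin for 4 h. Secreted Gaussia luciferase in medium read by coelenterazine luminescence.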
# [24] = Cell Viability qHTS for small molecule stabilizers of the endoplasmic reticulum resident proteome (AID 1508629); conditions: cell viability counter-screen, 100 nM thapsigargin for final 4 h
structure (smiles),measurement,setting,value
NCCc1ccc(S(=O)(=O)F)cc1,"activity, negative = inhibition",[1],inconclusive: 51.8% [activator]
same,Potency,[2],inactive
same,"activity change, negative = inhibition",[3],inconclusive: -21.7% [phenotype inactive]
same,Potency,[4],"inconclusive: 22.4 µM [inhibitor, partial curve, poor fit]"
same,"activity change, negative = inhibition",[5],inconclusive: 0.935%
same,Potency,[6],inactive
same,Potency,[7],inactive
same,Potency,[8],"inconclusive: 11.2 µM [inhibitor, partial curve, poor fit]"
same,Potency,[9],inactive
same,Potency,[10],"inconclusive: 29.1 µM [activator, single point]"
same,Potency,[11],inactive
same,Potency,[12],inactive
same,Potency,[13],inactive
same,Potency,[14],"inconclusive: 3.55 µM [inhibitor, full curve, poor fit]"
O=C1N[C@@H](Cc2c[nH]c3ccccc23)C(=O)N[C@H]1Cc1c[nH]c2ccccc12,Potency,[15],inactive
O=CC(O)C1OC(=O)C(O)C1O (centres undefined),Potency,[15],inactive
Cc1ccc(-n2nc(C(C)(C)C)cc2NC(=O)Nc2ccc(OCCN3CCOCC3)c3ccccc23)cc1,Potency,[15],"inconclusive: 61.1 µM [inhibitor, single point]"
CC(=O)c1ccccn1,Potency,[15],inactive
CCOC(=O)N1CCN([N+]([O-])=NOc2cc(ON=[N+]([O-])N3CCN(C(=O)OCC)CC3)c([N+](=O)[O-])cc2[N+](=O)[O-])CC1,Potency,[15],inactive
CCC(=O)O[C@]1(C(=O)CO)CC[C@H]2[C@@H]3CCC4=CC(=O)CC[C@]4(C)[C@@H]3CC[C@@]21C,Potency,[15],inactive
NCC(CP(=O)(O)O)c1ccc(Cl)cc1 (centres undefined),Potency,[6],"inconclusive: 11.2 µM [inhibitor, partial curve]"
same,Potency,[16],inactive
same,Potency,[9],inactive
same,Potency,[17],inactive
same,Potency,[10],"inconclusive: 4.61 µM [activator, single point]"
same,Potency,[18],inactive
same,Potency,[12],"inconclusive: 26.1 µM [side channel, falling, single point]"
same,Potency,Papain (Carica papaya),"inconclusive: 3.16 µM [inhibitor, single point]"
CN(CC=CC#CC(C)(C)C)Cc1cccc2ccccc12,Potency,[15],inactive
Clc1ccc(N2CC3CCC(C2)N3)nn1,Potency,[19],"inconclusive: 17.8 µM [inhibitor, single point]"
same,Potency,[8],"inconclusive: 11.2 µM [inhibitor, partial curve, poor fit]"
same,Potency,[20],inactive
same,Potency,[11],"inconclusive: 37.9 µM [activator, single point]"
same,Potency,[12],inactive
same,Potency,[21],"inconclusive: 50.1 µM [inhibitor, partial curve]"
same,Potency,[22],"inconclusive: 28.2 µM [inhibitor, partial curve, poor fit]"
same,Potency,[23],"inconclusive: 31.6 µM [inhibitor, partial curve]"
same,max response,[24],inactive: -7.5%
same,Potency,[14],"inconclusive: 10 µM [inhibitor, partial curve, poor fit]"
